Data taken from ChEMBL document CHEMBL1139381 (J Med Chem, 2009).

Assays:
Type in all cases: functional, organism-based
Plasmodium falciparum [1] = assay: Antimalarial activity after 24 hrs against chloroquine-resistant synchronous Plasmodium falciparum K1 infected human A+ erythrocytes by [3H]hypoxanthine uptake
Plasmodium falciparum [2] = assay: Antimalarial activity after 72 hrs against chloroquine-resistant Plasmodium falciparum W2 infected human A+ erythrocytes by Makler LDH reporter assay; details: W2, 72 h
Plasmodium falciparum [3] = assay: Antimalarial activity after 72 hrs against chloroquine-sensitive Plasmodium falciparum D10 infected human A+ erythrocytes in Makler LDH reporter assay; details: D10, 72 h

Clc1ccccc1C(c1ccccc1)(c1ccccc1)n1ccnc1 [CLOTRIMAZOLE]
IC50 (Plasmodium falciparum [1]): 250 nM | IC50 (Plasmodium falciparum [2]): 490 nM | IC50 (Plasmodium falciparum [3]): 550 nM
